Results as given in patent US20100119478A1.
These are yes or no findings as the source states them, for the method shown. Some results given as binding are weak or reduced against the parent protein; the word gives no strength.

Amino acid sequences for entries named in this document (tags omitted). Residues count along the entry.
UniProt P14844, residues 24-148: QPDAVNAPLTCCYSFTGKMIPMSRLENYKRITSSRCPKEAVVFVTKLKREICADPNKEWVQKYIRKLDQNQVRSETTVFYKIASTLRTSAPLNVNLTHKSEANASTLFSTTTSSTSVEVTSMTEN
UniProt P10148, residues 24-148: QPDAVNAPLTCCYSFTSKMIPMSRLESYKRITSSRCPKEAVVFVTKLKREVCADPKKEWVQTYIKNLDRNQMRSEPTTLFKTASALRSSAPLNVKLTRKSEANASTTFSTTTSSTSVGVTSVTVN

Columns and labels:
rat MCP-1 N1pE (rat) [1] = molecular target: rat MCP-1 N1pE (rat) (UniProt P14844); assay: immunohistochemistry, rat brain sections
mouse MCP-1 N1pE (mouse) [2] = molecular target: mouse MCP-1 N1pE (mouse) (UniProt P10148); assay: Western blot of RAW 264.7 supernatant, antibody 1 µg/ml
mouse MCP-1 N1pE (mouse) [3] = molecular target: mouse MCP-1 N1pE (mouse) (UniProt P10148); assay: sandwich ELISA, capture rabbit anti mJE, detection by the clone
rat MCP-1 N1pE (rat) [4] = molecular target: rat MCP-1 N1pE (rat) (UniProt P14844); assay: immunohistochemistry (DAB) on rat brain sections after microinjection
mouse MCP-1 N1pE (mouse) [5] = molecular target: mouse MCP-1 N1pE (mouse) (UniProt P10148); assay: Western blot of RAW 264.7 cell culture supernatants, antibody 1 µg/ml
08 ZPDAVNAPL = molecular target: T1, 08 ZPDAVNAPL; assay: PepSpot membrane, peptide 1 µg/spot, antibody 1 µg/ml, AP-conjugated anti-mouse detection
T1 sequence (peptide, position 1, Z = pyroglutamate (pE), per p-0211): ZPDAVNAPL

[6] = molecular target: T2, 15 Z…; assay: as above
T2 sequence (peptide, position 1, Z = pyroglutamate (pE), per p-0211): ZPDALNVPST

mouse MCP-1 N1pE (mouse) [7] = molecular target: mouse MCP-1 N1pE (mouse) (UniProt P10148); assay: sandwich ELISA: rabbit anti mJE capture, recombinant mMCP-1 N1pE titrated, antibody clone with HRP anti-mouse for detection

Measured: binding

B1: monoclonal antibody 332-4B8 (antibody, V domains shown)
VH: EVQLQQSGPELEKPGASVKISCKASGYSFTGYNMNWVKQNNGKSLEWIGNITPYYGSTSYNQKFKGRVTLTVDKSSSTAYMQLKSLTSEDSAVYFCLLWLRRGDYAMDYWGQGTSVTVSS
VL: DVLMTQTPLSLPVSLGDQASISCKSSQSIVHSNGNTYLEWYLQKPGQSPKLLIYKVFNRFSGVPDRFSGSGSGTDFTLKISRVEAEDLGVYYCFQGSHVPYTFGGGTKLEIKR
binds: all assays above
